Laboratory results taken from paper doi:10.1101/2025.02.07.636424.
These are yes or no findings as the source states them, for the method shown. Binding seen in cells or lysates may run through a third protein. Some entries that bind do so weakly or less than the wild type.

The chains behind the UniProt entries cited, without tags or fusion partners. Where a name states a change or a piece, a line headed by the entry shows the natural chain unless it says otherwise. A line that says so, or that is headed by a name, gives the form on record, which may keep a tag or linker.
N-terminally EYFP-tagged human PML-V isoform (P29590, form named): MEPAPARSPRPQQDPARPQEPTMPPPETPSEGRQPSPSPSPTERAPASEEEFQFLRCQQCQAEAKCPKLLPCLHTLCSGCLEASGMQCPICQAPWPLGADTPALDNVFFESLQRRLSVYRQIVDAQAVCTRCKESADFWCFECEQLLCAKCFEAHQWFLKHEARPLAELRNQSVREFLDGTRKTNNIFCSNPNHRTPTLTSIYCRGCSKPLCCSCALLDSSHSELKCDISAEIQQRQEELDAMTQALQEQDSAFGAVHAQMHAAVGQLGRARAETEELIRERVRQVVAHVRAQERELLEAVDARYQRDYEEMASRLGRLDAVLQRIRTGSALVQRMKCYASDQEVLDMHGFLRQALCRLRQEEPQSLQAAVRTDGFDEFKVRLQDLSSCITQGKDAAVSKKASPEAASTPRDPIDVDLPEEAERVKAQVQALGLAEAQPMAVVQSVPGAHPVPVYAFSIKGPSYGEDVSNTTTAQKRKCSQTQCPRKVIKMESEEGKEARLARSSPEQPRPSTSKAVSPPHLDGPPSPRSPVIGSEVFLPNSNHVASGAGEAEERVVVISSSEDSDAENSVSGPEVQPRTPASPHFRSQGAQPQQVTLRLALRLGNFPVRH

Target: N-terminally EYFP-tagged human PML-V isoform (human) (UniProt P29590)
Assay: co-IP

HAdV-C5 early protein E1B-55K (from UniProt P03243 1-496)
binding: binds
